PubChem BioAssay AID1259308, NCATS, 2017

- Aim: 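Genes whose loss raises luciferase production in HEK293 cells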 (primary screen)
- Cell system: human HEK293 embryonic kidney cells stably expressing firefly luciferase (HEK-CMV-Luc2-Hygro)
- Reagent: single siRNA against human genes, 0.8 pmol siRNA per well
- Time to read-out: 72 h
- Measured: 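Reporter luminescence and viable-cell signal on separate replicate plates, given as percent of non-targeting control and median/MAD z-scores, plus per-cell luciferase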
- Direction: total luciferase, z-score: higher = more reporter protein produced
- Rule for the call: 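Active when the median/MAD z-score for overall luciferase is greater than 3; a gene was taken forward for validation with new siRNAs if at least two of its three siRNAs passed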
- Calls: active = raised luciferase; inactive = no rise
The deposit covers about 59,000 reagents; below is a part drawn at random. About 1,510 of all reagents (2.6%) count as active. 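Calls use total luciferase alone and ignore viability, so some active siRNAs may act by altering cell number.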 Entries without a mark were called inactive. The numbers tell different reagents against one gene apart. Not all columns of the deposit are shown.

total luciferase, z-score, by target gene and reagent
PPP1R26: #1 1.7; #2 0.891; #3 1.57
MANF: #1 -1.01; #2 -1.66; #3 1.13
RGS2: #1 -0.372; #2 3.98 (active); #3 1.88
IQCJ: #1 -0.439; #2 0.353; #3 -0.395
TFDP1: #1 -0.0751; #2 -0.888; #3 -0.387

3 entries already listed, ordered by “total luciferase, z-score”, high to low:
Target gene	siRNA no.	total luciferase, z-score
MANF	3	1.13
MANF	1	-1.01
MANF	2	-1.66

The list goes on.
total luciferase, z-score, by target gene and reagent
MIA3: #1 1.2; #2 0.0641; #3 0.0906
MMP2: #1 -0.582; #2 1.03; #3 -0.896
DNAJC28: #1 -1.11; #2 -1.68; #3 -0.842
